Reference: patent publication US20090069231A1
These are yes or no findings as the source states them, for the method shown. Binding seen in cells or lysates may run through a third protein. Some entries that bind do so weakly or less than the wild type.

By UniProt entry, the sequences of proteins in these tests, tags left out. Where a name states a change or a piece, a line headed by the entry shows the natural chain unless it says otherwise. Chains listed by the source or under a name are the forms on record and can include a tag or linker. Residues count along the entry.
Recombinant VEGF (P15692, form named): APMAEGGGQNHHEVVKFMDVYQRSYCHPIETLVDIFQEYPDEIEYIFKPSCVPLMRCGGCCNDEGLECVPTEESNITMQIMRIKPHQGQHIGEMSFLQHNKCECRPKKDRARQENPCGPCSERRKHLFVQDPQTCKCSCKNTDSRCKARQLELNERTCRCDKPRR
UniProt Q9UBP4, residues 22-350: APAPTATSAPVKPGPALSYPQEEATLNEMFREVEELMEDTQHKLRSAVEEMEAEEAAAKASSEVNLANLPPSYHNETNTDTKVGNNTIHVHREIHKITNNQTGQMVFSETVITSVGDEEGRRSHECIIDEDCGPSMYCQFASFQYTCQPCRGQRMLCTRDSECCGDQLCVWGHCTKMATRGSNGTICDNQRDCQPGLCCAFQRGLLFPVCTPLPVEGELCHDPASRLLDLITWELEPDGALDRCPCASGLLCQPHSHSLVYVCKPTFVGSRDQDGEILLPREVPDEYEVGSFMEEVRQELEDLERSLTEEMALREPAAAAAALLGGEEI

What was measured:
[1] = biological target: Recombinant VEGF (human) (UniProt P15692); experiment: co-immunoprecipitation of I-VEGF with DKK3 captured on anti-DKK3 antibody beads, scintillation counting (N=1)
[2] = biological target: Recombinant VEGF (human) (UniProt P15692); experiment: functional ELISA (DKK3-coated wells, VEGF added, anti-VEGF detection) and co-immunoprecipitation of I-VEGF with DKK3 captured on anti-DKK3 beads

binding [1]: binds
binding [2]: binds
Substance: Human recombinant DKK3 (Dickkopf 3) (from UniProt Q9UBP4 22-350) (ligand)
